SMILES strings stand for the structures. The list shows only some results of the screen, not a fair sample: it gathers tests that were run many times, whatever their T/C, doses with no T/C, and many T/C values between a quarter and a half above the control. Further doses and runs are listed elsewhere. T/C is the treated group as % of the vehicle group. Some doses have a count of surviving animals in place of a T/C: the source holds a T/C of zero for them, seemingly a mark for toxic or unscored doses. Some doses without a T/C left all or most animals alive at the check, yet need not have been tolerated: the source hardly ever lists a survival T/C far under the control, and the zero likely stands for such cases as well. Survivors were counted at the toxicity check, usually on the fifth day, unless a day is given; later deaths do not show. Schedules are NCI's codes, taken here to give the interval after Q, in days (D) or hours (H), and the number of doses after X. Some structures stand for samples that the source files as different forms (salt, stereo form or complex); doses refer to the form tested. Counts like (3×) stand for listed records that agree. Some doses were run more than once; the values are given in rising order. For survival time, this PubChem deposit counts one and a half times the control or more as active, and values a quarter to a half above the control carry no call in these data; other NCI protocols may use other cut-offs. Some T/C values are followed by the survivors on the day toxicity was checked, most often the fifth; without a count, all were alive then.

Here are results for 30 compounds from PubChem BioAssay AID330 (DTP/NCI, 2004).

The assay deals with P388 leukemia ip, CD2F1 mice, survival T/C. In words: NCI In Vivo Anticancer Drug Screen. Data for tumor model P388 Leukemia (intraperitoneal) in CD2F1 (CDF1) mice. The settings on record: T/C endpoint: median survival time, higher T/C = longer survival.
Where [1] appears, read: dose: 50.0 mg/kg/injection, schedule: Q01DX009 (ip), vehicle: saline with Tween-80.
[2] abbreviates: dose: 100.0 mg/kg/injection, schedule: Q01DX009 (ip), vehicle: saline with Tween-80.
Where [3] appears, read: dose: 200.0 mg/kg/injection, schedule: Q01DX009 (ip), vehicle: saline with Tween-80.
Where [4] appears, read: dose: 200.0 mg/kg/injection, schedule: Q01DX005 (ip), vehicle: Klucel (hydroxypropylcellulose) (HPC).
The mark [5] stands for this setting: dose: 200.0 mg/kg/injection, schedule: Q01DX005 (ip), vehicle: saline with Tween-80.
The mark [6] stands for this setting: dose: 200.0 mg/kg/injection, schedule: Q01DX009 (ip), vehicle: saline.
Setting [7] is: dose: 12.5 mg/kg/injection, schedule: Q01DX009 (ip), vehicle: saline with Tween-80.
[8] abbreviates: dose: 240.0 mg/kg/injection, schedule: Q01DX005 (ip), vehicle: saline with Tween-80.
[9] abbreviates: dose: 25.0 mg/kg/injection, schedule: Q04DX003 (ip), vehicle: saline with Tween-80.

Regarding `O=C(NP1(=O)NCc2ccccc2CN1)OC1CCCC1`, the T/C (dose: 12.5 mg/kg/injection, schedule: Q01DX005 (ip), vehicle: Klucel (hydroxypropylcellulose) (HPC)) is 147 % of control. Moreover, the survivor count was 5 of 5 (dose: 50.0 mg/kg/injection, schedule: Q01DX005 (ip), vehicle: Klucel (hydroxypropylcellulose) (HPC)) and 5 of 5 (dose: 100.0 mg/kg/injection, schedule: Q01DX005 (ip), vehicle: Klucel (hydroxypropylcellulose) (HPC)).
As to `CCCCCCCCCCC(O)Cn1ccnc1` (stereo not drawn), the survivor count reads like this: under setting [1], 4 of 6; under setting [2], 1 of 6; under setting [3], 0 of 6.
The corresponding values for `O=[N+]([O-])C1CCC(O)C([N+](=O)[O-])C1` (stereo not drawn) (tested in a mixture with another compound) are 2 of 6, 0 of 6 and 0 of 6.
As for `CCOC(=O)C(=CNc1ccc2c(C)cc3ccc(C(=O)OCC)c(=O)n3c2n1)C(=O)OCC`, the survivor count under setting [4] is reported as 5 of 5.
Consider `NC(CSc1nc2ccccn2c1[N+](=O)[O-])C(=O)O` (stereo not drawn), for which the survivor count (dose: 100.0 mg/kg/injection, schedule: Q01DX009 (ip), vehicle: Klucel (hydroxypropylcellulose) (HPC)) is 3 of 6 and the survivor count (dose: 200.0 mg/kg/injection, schedule: Q01DX009 (ip), vehicle: Klucel (hydroxypropylcellulose) (HPC)) is given as 0 of 6.
Take `O=C1C=CC(=O)N1c1ccc(O)cc1`: the survivor count (dose: 5.0 mg/kg/injection, schedule: Q01DX009 (ip), vehicle: saline sonified) is given as 6 of 6.
Regarding `CN1C(=O)N(C)C2(C(=O)N(C)C(=O)N2C)N(C)C1=O`, for the setting “dose: 120.0 mg/kg/injection, schedule: Q01DX005 (ip), vehicle: Klucel (hydroxypropylcellulose) (HPC)”, the survivor count is given as 5 of 6.
Regarding `CC1(C)SC(=O)C(=O)S1`, for the setting “dose: 400.0 mg/kg/injection, schedule: Q04DX003 (ip), vehicle: saline”, the survivor count was 0 of 6.
For the compound `COc1ccccc1N1CCN(CCc2c[nH]c3cc4c(cc23)OCO4)CC1`, the survivor count (dose: 150.0 mg/kg/injection, schedule: Q01DX009 (ip), vehicle: Klucel (hydroxypropylcellulose) (HPC)) was 2 of 6.
As for `C/C=C/c1cc2c(c(=O)o1)C(=O)[C@@H](O)[C@H](C)O2`, the T/C is 132 and 136 % of control under setting [2]; 135 % of control (dose: 150.0 mg/kg/injection, schedule: Q01DX009 (ip), vehicle: saline with Tween-80).
Consider `COc1ccccc1NC(=S)N/N=C\c1cc(N=Nc2ccccc2)cc(OC)c1O`, for which the survivor count under setting [5] is 2 of 6.
As to `O=Cc1coc2ccccc2c1=O`, the T/C was 132 % of control (dose: 50.0 mg/kg/injection, schedule: Q01DX009 (ip), vehicle: saline) and 139 % of control (dose: 100.0 mg/kg/injection, schedule: Q01DX009 (ip), vehicle: saline). For the same compound, the survivor count reads like this: under setting [6], 1 of 6, 3 of 6, 4 of 6; (dose: 400.0 mg/kg/injection, schedule: Q01DX009 (ip), vehicle: saline) 0 of 6 and 1 of 6.
As to `O=[N+]([O-])c1cc2c([N+](=O)[O-])cccc2o1`, the survivor count (dose: 400.0 mg/kg/injection, schedule: Q04DX003 (ip), vehicle: Klucel (hydroxypropylcellulose) (HPC)) was 4 of 6.
Regarding `CN=C(N)N/N=C(\C)c1ccc(/C(C)=N/NC(N)=NC)cc1`, the survivor count by setting is: (dose: 50.0 mg/kg/injection, schedule: Q04DX002 (ip), vehicle: saline with Tween-80) 0 of 6; (dose: 100.0 mg/kg/injection, schedule: Q04DX002 (ip), vehicle: saline with Tween-80) 0 of 6.
For `CC(C)(C)N1N=C2CCCC2[Si]1(C)C` (stereo not drawn), the survivor count under setting [4] is 4 of 6.
For `CS(=O)(=O)O/C=C1/CCOC1=O`, the T/C by setting is: (dose: 25.0 mg/kg/injection, schedule: Q01DX009 (ip), vehicle: water) 126 % of control; (dose: 50.0 mg/kg/injection, schedule: Q01DX009 (ip), vehicle: water) 125 [5 of 6 alive] and 132 % of control. In addition, the survivor count is, setting by setting: (dose: 100.0 mg/kg/injection, schedule: Q01DX009 (ip), vehicle: water) 1 of 6; (dose: 200.0 mg/kg/injection, schedule: Q01DX009 (ip), vehicle: water) 0 of 6.
With `CC(=Nc1ccc(Cl)cc1N)c1c(O)cc(C)oc1=O`, under “dose: 240.0 mg/kg/injection, schedule: Q01DX005 (ip), vehicle: Klucel (hydroxypropylcellulose) (HPC)”, the survivor count is 3 of 6.
In the case of `Clc1nnc(Cl)c(Cl)c1Cl`, the survivor count by setting is: (dose: 0.4 mg/kg/injection, schedule: Q01DX009 (ip), vehicle: saline with Tween-80) 6 of 6; (dose: 0.75 mg/kg/injection, schedule: Q04DX003 (ip), vehicle: saline with Tween-80) 5 of 6; (dose: 1.5 mg/kg/injection, schedule: Q04DX003 (ip), vehicle: saline with Tween-80) 1 of 6.
Consider `CCCN(C)C(=O)N(CCCl)N=O`, for which the T/C by setting is: (dose: 4.0 mg/kg/injection, schedule: Q01DX001 (ip), vehicle: water) 127 % of control; (dose: 8.0 mg/kg/injection, schedule: Q01DX001 (ip), vehicle: water) 132 % of control; (dose: 64.0 mg/kg/injection, schedule: Q01DX001 (ip), vehicle: water) 125 % of control.
Consider `CCN(CC)c1ccc(/C=C/c2ccnc3ccccc23)cc1`, for which the survivor count was 5 of 6 under setting [7]; 5 of 6 (dose: 25.0 mg/kg/injection, schedule: Q01DX009 (ip), vehicle: saline with Tween-80); 5 of 6 and 6 of 6 under setting [1]; 6 of 6 (dose: 80.0 mg/kg/injection, schedule: Q04DX003 (ip), vehicle: saline); 5 of 6 and 6 of 6 (dose: 100.0 mg/kg/injection, schedule: Q04DX003 (ip), vehicle: saline with Tween-80); 6 of 6 (2×) (dose: 200.0 mg/kg/injection, schedule: Q04DX003 (ip), vehicle: saline with Tween-80). Further, under “dose: 400.0 mg/kg/injection, schedule: Q04DX003 (ip), vehicle: saline with Tween-80”, the survivor count is 3 of 6 and 4 of 6.
In the case of `COc1ccc(C)cc1NC(=S)C#N`, the survivor count under setting [8] is recorded as 0 of 6.
On the same count and under the same terms, next, `N#Cc1c(C(=O)NOCCCc2ccccc2)cc(-c2ccc(F)cc2)[nH]c1=O`: 3 of 6.
In the case of `COC1=C(C)C(=O)c2c(c(COC(N)=O)c3n2CC2C3N2C)C1=O` (stereo not drawn), the T/C (dose: 3.13 mg/kg/injection, schedule: Q01DX009 (ip), vehicle: saline with Tween-80) is 139 % of control. For the same compound, the survivor count is reported as 4 of 6 (dose: 6.25 mg/kg/injection, schedule: Q01DX009 (ip), vehicle: saline with Tween-80); 1 of 6 under setting [7]; 6 of 6 under setting [9].
As to `CC1(C)N=C(N)N=C(N)N1c1cccc(CCCCOc2ccccc2)c1`, the T/C runs as follows: (dose: 8.0 mg/kg/injection, schedule: Q01DX009 (ip), vehicle: saline with Tween-80) 137 % of control; (dose: 12.0 mg/kg/injection, schedule: Q01DX009 (ip), vehicle: saline with Tween-80) 133 % of control. For the same compound, the survivor count under setting [9] was 6 of 6.
With `CC1(C)CC2(C)OC(=O)c3ccccc3N2C(=S)N1` (stereo not drawn), the survivor count reads like this: (dose: 120.0 mg/kg/injection, schedule: Q01DX005 (ip), vehicle: saline with Tween-80) 6 of 6; under setting [8], 6 of 6.
`COC(=N)N(C)/N=C/c1ccccc1`: the survivor count (dose: 400.0 mg/kg/injection, schedule: Q01DX001 (ip), vehicle: Klucel (hydroxypropylcellulose) (HPC)) is 1 of 6.
`CCCCCCCCCCCCCCN1CCSCC1`: the survivor count under setting [6] is 0 of 6.
For `CCCCOC1OCN(CCC)CC1(C)C` (stereo not drawn), the T/C is, setting by setting: under setting [2], 138 % of control [5 of 6 alive]; under setting [3], 129 and 132 % of control. Besides, the survivor count (dose: 400.0 mg/kg/injection, schedule: Q01DX009 (ip), vehicle: saline with Tween-80) is listed as 4 of 6.
Regarding `CC1(C)OCC(C2OC(C)(C)OC2C(O)c2ccco2)O1` (stereo not drawn), the T/C (dose: 200.0 mg/kg/injection, schedule: Q01DX009 (ip), vehicle: distilled water + Tween-80) was 126 % of control.
For `COc1cc2c(cc1O)CC1c3c(cc(O)c(OC)c3-2)CCN1C` (stereo not drawn), under setting [5], the survivor count is 0 of 6.
